The supplement of paper PMC3334620
The full ranking holds about 33,000 sequences; the median of “E-score (-0.5 to 0.5)” is about -0.0059, and the highest 2% start at about 0.26. The list shows a part of the results.

target: T1, Cin5 (UniProt P40917); assay: PBM E-score (8-mer binding enrichment) (E-score (-0.5 to 0.5)); higher = stronger / more preferred TF binding; details: protein concentration: 100 nM; construct: GST-full length
T1 sequence: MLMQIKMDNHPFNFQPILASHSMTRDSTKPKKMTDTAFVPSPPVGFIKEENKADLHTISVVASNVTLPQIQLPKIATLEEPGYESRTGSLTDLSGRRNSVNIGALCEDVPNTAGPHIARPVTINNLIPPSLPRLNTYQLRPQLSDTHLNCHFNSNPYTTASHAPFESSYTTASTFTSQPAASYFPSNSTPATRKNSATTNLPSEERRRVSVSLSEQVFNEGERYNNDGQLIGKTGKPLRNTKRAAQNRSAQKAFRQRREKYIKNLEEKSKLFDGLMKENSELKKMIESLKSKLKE
Outline: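 Detection of bound protein used fluorescent anti-GST, with scans normalised by masliner. The proteins were GST-tagged yeast transcription factors applied at about 100-200 nM to universal all-10-mer Agilent arrays made double-stranded by primer extension. Each ungapped eight-base word, pooled with its reverse complement, was scored with an E-score from the Universal PBM Analysis Suite.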

Sequence | PBM E-score
CGTACTGA | 0.115
ACGGAGCT | -0.274
AAGCCCCA | -0.102
ATTTTCTG | 0.0829
ATAACTGC | 0.0345
AGCAAGTC | 0.00168
ATCTATCG | 0.0239
GATTCTAA | -0.0896
AAATCGGA | 0.00712
GTCATTGA | 0.0602
AAGTCCGG | -0.187
ACCGCACA | 0.0171
ACCTATTC | -0.0399
AAAGGCTA | 0.0337
GCGTCACA | 0.0289
CCTCCAAA | -0.197
ACGTCGGC | -0.0908
AGTAAGAG | -0.01
AACATAGG | -0.0463
CACACCGC | -0.13
TAAACTGA | 0.051
ACAAGGGA | -0.186
ACGCTCGA | -0.00995
AGTTGTAG | 0.104
GCTGCGCA | -0.141

Sequence | PBM E-score
AGCTGACA | 0.0172
AGCGGCCT | -0.276
CCGTATTC | 0.0345
GCTAAGTA | 0.046
CCTTTGCA | -0.0748
GGCTTTGA | -0.0566
CGACCCTC | -0.298
AAGGCGTG | -0.0734
AACTAAGG | 0.0624
GACGCCCA | -0.0707
AGGCGAAC | -0.102
CTAATAAA | 0.164
GAGAAGCA | -0.0556
AGGCCAAT | -0.00799
CCGTTAGG | -0.155
AGCTAACA | -0.0476
ATCCCTAC | 0.0672
GAGAGGGA | -0.288
CAATAGAC | 0.0892
ACATCCCA | -0.0872
CGGGTCAA | -0.0269
GTGTTGGA | -0.0393
CACCTTAA | -0.0476
TACGTAAA | 0.302
CATCGTAC | 0.0675

Sequence | PBM E-score
GTCGACAC | -0.0723
AATTATGG | 0.156
CCAGCCCC | -0.131
TGGTCAAA | 0.0901
TGTGAACA | 0.0488
GTCAGCGA | -0.0481
ACGGGACG | -0.0796
AATCAGGG | -0.152
GCACCCCA | 0.143
ATGAATTG | 0.183
ATATTCAG | 0.158
ATGAGTCA | 0.0858
CCCACCAG | -0.142
CAAGTCCG | -0.109
AAATATGT | 0.223
AAAATACT | 0.16
AGGTCTAA | -0.0492
ACATGCCC | -0.178
CCCGTAGA | -0.302
ACCACGGT | -0.303
ACAATCGC | 0.115
TATAATAA | 0.241
AGACCTTA | -0.0451
AGATTACG | 0.419
TTTCCAAA | -0.0319

Sequence | PBM E-score
CCAATGGG | -0.286
GTTGATGA | 0.154
CATTCTCA | 0.21
TATATAAA | 0.283
ACCTCACC | 0.00165
ACTCATGA | 0.171
GATTTTGA | 0.115
CACGGCCG | 0.0294
AATTTATG | 0.192
AGGACGAC | -0.127
CATACGCA | -0.0419
GAGAGTTA | -0.0296
CGAAAATA | 0.0809
ACTCGCGC | 0.112
ATCTCTTC | 0.117
AGATCAGC | 0.137
CCATTACC | 0.00911
AGGCAAGA | -0.112
AAACTTAT | 0.233
CTTTATTA | 0.0651
CATCCGCA | 0.128
CGACGACG | -0.0571
TGGGTCAA | 0.0321
CACGTTCC | -0.177
CATCTAGC | 0.0347

3 neighbouring entries already listed, for reference:
Sequence | PBM E-score
AGGCCAAT | -0.00799
CCGTTAGG | -0.155
AGCTAACA | -0.0476

(list continues)

Sequence | PBM E-score
ACCGGTTC | -0.122
ATGAAGCG | -0.2
CGCGACGA | 0.106
CAAGCTAG | -0.143
CAAACACA | 0.0789
AGAGTAGA | 0.00965
AGGTCGCC | -0.0498
AGCCATAC | -0.178
TGCACAAA | -0.0813
CCCGGATC | 0.138
CAGGGTCG | -0.236
CTCTTTTA | -0.209
AGGTTCCG | 0.149
AAAGATCC | 0.0292
CTTTTTAC | 0.0385
ATGGTAAA | 0.155
CGGAATAA | 0.0669
AAGATCGT | 0.0211
CACTGCAC | -0.0442
AGTTCTTG | 0.0161
GTGTGTGA | 0.0728
ATGGCAAC | 0.137
GAATGGTA | 0.0546
AAATCGTA | 0.221
GTTCTTCA | -0.0175

Sequence | PBM E-score
CACACAGG | 0.0402
ACAGACTC | -0.178
GATGTTGC | 0.12
GCTGCCAA | -0.037
ATATGGCA | 0.0205
CACCCACG | 0.0558
CGCTGTCA | -0.139
ACCAGTTA | 0.142
AATCCTCG | 0.00451
AGTGTCTC | -0.175
CCGTTTAA | 0.0312
GCTGCGGA | -0.105
GGACCCTA | -0.267
GTGTATCA | 0.202
ACAACAAG | 0.116
CAGCACAC | -0.286
ACGTGCAT | -0.0505
CTAGCACA | -0.122
ACTTCCCC | -0.151
TTCGACAA | 0.00362
CCCCAACG | 0.0439
CGAGTAAC | 0.0866
ACTCGTCA | 0.0152
CTTAGGGA | -0.365
AAGTTAGG | -0.0568

A second format for part of the listing above.
Sequence	PBM E-score
ACTCGTCA	0.0152
CTTAGGGA	-0.365
AAGTTAGG	-0.0568

Continued.

Sequence | PBM E-score
AGTGTCAG | 0.0559
ACTCCATC | 0.144
ATTAACCG | 0.158
CAGTACTG | -0.141
ATGGATGC | 0.0484
GACTCTAC | -0.183
TACTGGAA | 0.0953
GGAGGGCA | -0.241
CGGTCTAG | -0.0383
AAAATACG | 0.0862
CAATTTCA | 0.0124
CACAGCGC | 0.073
GTCCTAAC | -0.11
CAATCGTA | 0.121
ACTAGGGC | -0.106
AAGGGGGG | -0.48
CGCCGCCG | -0.0326
ATCCAAAG | 0.126
GGGTAACA | 0.00503
CACGCGTC | 0.145
ATATAATA | 0.303
CGCCATGC | -0.086

In a second layout: results already given.
Sequence	PBM E-score
AATCAGGG	-0.152
GCACCCCA	0.143
ATGAATTG	0.183
ATATTCAG	0.158
ATGAGTCA	0.0858
CCCACCAG	-0.142
CAAGTCCG	-0.109
